Measurements: the supplement of paper PMC10849652
The other results are listed elsewhere or left out.

Chains of the proteins cited; added tags and fusions are not shown. Lines headed by an entry give the natural chain unless they say otherwise; changes in a name come on top.
UniProt Q9H9T3: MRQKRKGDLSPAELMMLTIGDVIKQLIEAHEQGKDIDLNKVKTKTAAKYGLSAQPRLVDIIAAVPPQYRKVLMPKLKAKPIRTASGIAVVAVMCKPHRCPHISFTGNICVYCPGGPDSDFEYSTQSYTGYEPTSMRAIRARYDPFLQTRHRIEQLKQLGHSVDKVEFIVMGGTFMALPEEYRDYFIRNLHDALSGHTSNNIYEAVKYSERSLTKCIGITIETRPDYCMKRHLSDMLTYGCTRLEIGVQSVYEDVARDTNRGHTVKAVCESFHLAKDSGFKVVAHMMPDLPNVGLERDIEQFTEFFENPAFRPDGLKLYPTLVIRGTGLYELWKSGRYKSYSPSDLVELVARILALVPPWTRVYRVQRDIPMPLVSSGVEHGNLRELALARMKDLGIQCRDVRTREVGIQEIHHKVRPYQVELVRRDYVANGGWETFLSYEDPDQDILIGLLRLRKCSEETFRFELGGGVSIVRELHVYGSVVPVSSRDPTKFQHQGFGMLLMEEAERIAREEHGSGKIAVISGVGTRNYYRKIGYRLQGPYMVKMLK
UniProt Q6IA86: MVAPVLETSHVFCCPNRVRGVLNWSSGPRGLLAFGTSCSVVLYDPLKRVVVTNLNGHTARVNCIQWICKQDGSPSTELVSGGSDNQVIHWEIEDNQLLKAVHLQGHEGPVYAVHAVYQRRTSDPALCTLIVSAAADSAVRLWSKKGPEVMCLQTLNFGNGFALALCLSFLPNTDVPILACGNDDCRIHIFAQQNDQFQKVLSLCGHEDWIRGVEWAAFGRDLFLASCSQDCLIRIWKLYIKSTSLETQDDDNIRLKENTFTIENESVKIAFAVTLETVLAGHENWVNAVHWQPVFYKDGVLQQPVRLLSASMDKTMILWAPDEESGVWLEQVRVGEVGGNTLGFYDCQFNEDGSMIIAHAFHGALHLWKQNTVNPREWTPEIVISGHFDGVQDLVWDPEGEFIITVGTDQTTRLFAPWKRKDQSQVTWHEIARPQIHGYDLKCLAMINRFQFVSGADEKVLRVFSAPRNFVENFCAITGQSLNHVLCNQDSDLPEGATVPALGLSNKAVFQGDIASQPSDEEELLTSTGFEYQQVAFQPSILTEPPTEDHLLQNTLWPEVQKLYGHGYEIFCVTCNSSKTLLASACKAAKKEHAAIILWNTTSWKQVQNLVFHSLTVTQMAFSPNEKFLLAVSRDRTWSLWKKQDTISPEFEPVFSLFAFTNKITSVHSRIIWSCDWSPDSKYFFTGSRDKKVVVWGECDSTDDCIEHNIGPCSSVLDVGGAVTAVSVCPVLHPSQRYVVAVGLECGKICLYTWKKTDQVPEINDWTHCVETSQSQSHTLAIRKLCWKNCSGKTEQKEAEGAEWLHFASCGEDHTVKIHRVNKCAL
UniProt Q9BW60: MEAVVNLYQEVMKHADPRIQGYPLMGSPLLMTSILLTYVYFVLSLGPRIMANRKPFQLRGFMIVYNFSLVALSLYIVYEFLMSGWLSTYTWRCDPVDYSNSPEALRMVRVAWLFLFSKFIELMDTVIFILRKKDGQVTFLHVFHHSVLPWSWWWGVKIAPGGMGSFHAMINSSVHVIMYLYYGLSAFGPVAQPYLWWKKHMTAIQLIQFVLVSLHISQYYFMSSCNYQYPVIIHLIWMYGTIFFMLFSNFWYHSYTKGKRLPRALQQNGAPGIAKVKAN
UniProt Q5VTE0, whole entry, looked up: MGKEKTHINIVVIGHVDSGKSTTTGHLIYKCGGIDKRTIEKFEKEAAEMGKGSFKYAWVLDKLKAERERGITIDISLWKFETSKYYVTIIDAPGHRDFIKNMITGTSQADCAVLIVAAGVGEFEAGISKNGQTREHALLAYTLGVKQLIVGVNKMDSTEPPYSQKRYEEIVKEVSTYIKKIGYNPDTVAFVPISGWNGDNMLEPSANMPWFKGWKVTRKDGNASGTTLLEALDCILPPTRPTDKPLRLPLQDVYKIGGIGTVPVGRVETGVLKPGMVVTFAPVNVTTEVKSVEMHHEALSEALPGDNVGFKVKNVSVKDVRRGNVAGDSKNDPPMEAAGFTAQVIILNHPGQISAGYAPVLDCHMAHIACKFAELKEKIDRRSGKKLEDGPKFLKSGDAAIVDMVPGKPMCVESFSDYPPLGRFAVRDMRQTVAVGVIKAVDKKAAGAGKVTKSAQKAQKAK
UniProt P24534: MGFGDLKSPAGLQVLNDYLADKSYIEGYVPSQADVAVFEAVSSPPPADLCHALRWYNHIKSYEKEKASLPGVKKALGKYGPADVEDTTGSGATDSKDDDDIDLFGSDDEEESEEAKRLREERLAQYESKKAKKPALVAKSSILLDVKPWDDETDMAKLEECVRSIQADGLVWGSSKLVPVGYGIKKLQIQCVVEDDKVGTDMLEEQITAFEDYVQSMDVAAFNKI
UniProt P49770: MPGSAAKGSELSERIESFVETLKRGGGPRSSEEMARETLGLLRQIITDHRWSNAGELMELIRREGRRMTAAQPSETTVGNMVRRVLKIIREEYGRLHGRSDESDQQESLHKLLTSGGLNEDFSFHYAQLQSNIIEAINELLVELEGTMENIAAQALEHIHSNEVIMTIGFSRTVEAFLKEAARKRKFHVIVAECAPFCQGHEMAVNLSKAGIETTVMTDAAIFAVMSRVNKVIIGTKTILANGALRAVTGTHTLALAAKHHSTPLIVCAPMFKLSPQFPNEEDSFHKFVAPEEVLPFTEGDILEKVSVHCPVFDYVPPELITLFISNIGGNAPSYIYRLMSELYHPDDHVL
UniProt Q53HC9: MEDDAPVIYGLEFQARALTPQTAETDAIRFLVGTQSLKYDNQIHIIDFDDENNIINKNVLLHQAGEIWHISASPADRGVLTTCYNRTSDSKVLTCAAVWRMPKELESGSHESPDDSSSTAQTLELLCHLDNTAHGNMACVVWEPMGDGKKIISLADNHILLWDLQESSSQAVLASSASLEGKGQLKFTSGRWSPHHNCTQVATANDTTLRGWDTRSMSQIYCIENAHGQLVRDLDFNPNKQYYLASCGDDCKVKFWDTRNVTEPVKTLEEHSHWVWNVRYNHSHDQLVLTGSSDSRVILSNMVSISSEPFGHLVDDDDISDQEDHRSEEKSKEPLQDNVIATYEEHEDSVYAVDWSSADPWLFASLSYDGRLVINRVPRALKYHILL
UniProt Q0PNE2: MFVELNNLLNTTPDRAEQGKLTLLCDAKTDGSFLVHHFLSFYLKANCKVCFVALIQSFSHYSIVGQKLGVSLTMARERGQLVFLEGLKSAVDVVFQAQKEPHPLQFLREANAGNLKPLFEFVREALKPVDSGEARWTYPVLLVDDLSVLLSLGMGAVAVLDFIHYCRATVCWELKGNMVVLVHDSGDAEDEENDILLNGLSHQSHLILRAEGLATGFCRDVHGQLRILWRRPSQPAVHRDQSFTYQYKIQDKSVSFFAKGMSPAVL
UniProt Q5J8M3, whole entry, looked up: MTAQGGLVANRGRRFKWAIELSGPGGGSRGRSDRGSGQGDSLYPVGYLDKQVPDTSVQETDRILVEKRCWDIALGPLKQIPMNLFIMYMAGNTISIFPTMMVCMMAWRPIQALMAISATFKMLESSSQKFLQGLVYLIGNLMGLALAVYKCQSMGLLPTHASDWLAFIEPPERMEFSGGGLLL
UniProt Q15369, whole entry, looked up: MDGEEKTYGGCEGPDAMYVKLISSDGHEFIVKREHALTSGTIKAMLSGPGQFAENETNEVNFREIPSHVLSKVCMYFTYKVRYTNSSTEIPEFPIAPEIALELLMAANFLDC
UniProt Q05639, whole entry, looked up: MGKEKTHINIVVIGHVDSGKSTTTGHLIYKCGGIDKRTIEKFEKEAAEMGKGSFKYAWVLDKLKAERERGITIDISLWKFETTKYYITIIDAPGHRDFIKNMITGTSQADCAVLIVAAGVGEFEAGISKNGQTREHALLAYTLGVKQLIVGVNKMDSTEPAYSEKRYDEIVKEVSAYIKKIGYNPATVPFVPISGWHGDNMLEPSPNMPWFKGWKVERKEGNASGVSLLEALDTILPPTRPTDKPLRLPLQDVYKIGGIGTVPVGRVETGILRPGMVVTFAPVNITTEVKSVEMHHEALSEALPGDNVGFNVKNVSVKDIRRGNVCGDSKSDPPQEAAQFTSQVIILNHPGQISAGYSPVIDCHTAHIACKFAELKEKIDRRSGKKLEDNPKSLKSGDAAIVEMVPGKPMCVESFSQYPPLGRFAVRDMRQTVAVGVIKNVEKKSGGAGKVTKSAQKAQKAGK
UniProt Q9H4G0, whole entry, looked up: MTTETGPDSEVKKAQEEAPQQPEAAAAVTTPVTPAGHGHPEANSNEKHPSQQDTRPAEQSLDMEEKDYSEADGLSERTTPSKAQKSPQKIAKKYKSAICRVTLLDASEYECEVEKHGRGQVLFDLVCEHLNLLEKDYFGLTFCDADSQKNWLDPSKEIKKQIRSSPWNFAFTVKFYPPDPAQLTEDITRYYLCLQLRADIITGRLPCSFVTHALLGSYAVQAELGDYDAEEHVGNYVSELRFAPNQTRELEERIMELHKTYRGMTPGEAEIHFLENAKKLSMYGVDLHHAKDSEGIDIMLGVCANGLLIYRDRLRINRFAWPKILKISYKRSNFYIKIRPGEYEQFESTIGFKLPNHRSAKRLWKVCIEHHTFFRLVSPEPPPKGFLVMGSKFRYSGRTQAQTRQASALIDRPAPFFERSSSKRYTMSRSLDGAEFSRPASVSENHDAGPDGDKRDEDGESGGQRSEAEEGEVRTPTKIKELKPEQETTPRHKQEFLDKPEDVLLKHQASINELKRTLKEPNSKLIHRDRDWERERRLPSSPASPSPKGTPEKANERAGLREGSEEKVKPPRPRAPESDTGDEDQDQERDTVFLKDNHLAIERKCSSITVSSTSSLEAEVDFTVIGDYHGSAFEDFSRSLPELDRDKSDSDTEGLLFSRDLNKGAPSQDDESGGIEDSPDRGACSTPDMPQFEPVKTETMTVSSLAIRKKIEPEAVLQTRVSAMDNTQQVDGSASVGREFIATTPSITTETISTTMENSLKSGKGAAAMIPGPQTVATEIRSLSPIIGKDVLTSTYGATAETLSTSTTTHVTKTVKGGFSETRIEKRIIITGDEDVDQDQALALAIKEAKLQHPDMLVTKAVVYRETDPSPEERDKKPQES
UniProt Q9NPA8: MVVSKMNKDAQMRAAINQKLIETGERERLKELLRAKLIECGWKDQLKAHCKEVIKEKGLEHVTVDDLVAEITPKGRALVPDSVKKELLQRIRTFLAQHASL
UniProt O75822, whole entry, looked up: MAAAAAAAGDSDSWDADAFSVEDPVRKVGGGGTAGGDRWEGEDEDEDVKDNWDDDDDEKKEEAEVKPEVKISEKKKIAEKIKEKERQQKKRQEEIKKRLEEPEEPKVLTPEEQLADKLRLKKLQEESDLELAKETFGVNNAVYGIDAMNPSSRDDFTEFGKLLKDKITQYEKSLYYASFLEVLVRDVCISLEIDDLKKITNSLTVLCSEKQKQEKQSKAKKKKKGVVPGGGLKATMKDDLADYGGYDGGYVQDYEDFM
UniProt O60841: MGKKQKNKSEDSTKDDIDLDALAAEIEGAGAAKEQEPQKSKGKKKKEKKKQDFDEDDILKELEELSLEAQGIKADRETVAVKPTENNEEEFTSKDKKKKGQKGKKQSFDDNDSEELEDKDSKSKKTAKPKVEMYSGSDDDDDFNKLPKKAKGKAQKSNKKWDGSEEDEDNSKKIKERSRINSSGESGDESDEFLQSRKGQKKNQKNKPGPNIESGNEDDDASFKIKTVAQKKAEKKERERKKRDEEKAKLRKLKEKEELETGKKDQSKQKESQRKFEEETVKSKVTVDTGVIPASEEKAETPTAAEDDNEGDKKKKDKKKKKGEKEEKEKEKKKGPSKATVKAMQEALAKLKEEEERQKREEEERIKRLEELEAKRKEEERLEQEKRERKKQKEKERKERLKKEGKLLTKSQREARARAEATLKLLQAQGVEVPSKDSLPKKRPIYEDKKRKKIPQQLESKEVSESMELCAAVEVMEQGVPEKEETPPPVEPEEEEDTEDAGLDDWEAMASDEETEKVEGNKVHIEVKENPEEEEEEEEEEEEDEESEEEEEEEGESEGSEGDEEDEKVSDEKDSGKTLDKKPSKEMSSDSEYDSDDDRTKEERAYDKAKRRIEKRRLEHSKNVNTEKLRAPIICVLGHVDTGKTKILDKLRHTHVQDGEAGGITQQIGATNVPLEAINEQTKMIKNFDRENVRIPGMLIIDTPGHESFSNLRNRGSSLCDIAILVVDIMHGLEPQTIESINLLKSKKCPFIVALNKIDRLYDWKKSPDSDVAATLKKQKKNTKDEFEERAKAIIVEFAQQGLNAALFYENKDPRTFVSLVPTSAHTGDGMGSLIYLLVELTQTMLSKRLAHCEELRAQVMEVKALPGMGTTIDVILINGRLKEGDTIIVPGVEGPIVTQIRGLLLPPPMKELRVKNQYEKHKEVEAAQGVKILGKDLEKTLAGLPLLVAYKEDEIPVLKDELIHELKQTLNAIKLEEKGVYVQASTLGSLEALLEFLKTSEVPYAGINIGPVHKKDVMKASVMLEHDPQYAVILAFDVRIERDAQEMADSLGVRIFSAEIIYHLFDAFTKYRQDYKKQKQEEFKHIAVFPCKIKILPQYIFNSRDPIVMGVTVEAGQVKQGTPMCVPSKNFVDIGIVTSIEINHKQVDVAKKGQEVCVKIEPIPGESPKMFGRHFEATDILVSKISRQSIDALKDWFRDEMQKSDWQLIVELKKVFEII

Legend:
Assay in all cases: log2 fold change, soluble protein after heating vs DMSO (PISA); higher = thermal stabilisation; K562 cells, 10 uM, 30 min; active = over 0.2 and 3.5 SD of the protein, either way, in both replicates (recomputed)
[1] = compound: C1=CC=C(C=C1)[C@H](COC2=CC3=C(C=C2)NC(=O)N3)NC(=O)C4=CC=CN(C4=O)CC5=CC(=C(C=C5)F)F
Summary of the method: (§1)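 Soluble protein was defined as the supernatant after 21,000xg for 90 min. It came from K562 cells at 2×10^6 cells/mL given 10 μM compound for 30 min, heated in aliquots for 3 min across 48°C-58°C, pooled, and extracted in PBS with 0.5% NP-40 at 4°C, and was quantified by TMTpro 16plex LC-MS/MS with equalised channel sums. Thermal stability against control samples, from duplicates, is reported as log2 fold change.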

[2] = compound: CC1=C(SC2=C1C(=N[C@H](C3=NN=C(N32)C)CC(=O)N)C4=CC=C(C=C4)Cl)C
Summary of the method: as §1

[3] = compound: CC1=C2C(=CC=C1)N=C(N(C2=O)C3=CC=CC=C3C)CN4C=NC5=C(N=CN=C54)N
Summary of the method: as §1

[4] = compound: Cc1sc2c(c1C)C(c1ccc(Cl)cc1)=N[C@@H](CC(=O)OC(C)(C)C)c1nnc(C)n1-2
Summary of the method: as §1

[5] = compound: c1ccc([C@@H]2C[C@H]2NC2CCNCC2)cc1
Summary of the method: as §1

Measured: log2 fold change

ELP3 (UniProt Q9H9T3)
inactive: [1] 0.011 | [2] 0.042 | [3] 0.009 | [4] -0.051 | [5] -0.024

ELP2 isoform 6 (UniProt Q6IA86)
inactive: [1] -0.047 | [2] 0.03 | [3] 0.029 | [4] -0.012 | [5] 0.001

EIF6 (UniProt P56537)
inactive: [1] 0.011 | [2] -0.022 | [3] -0.049 | [4] 0.014 | [5] 0.023

EIF3L (UniProt Q9Y262)
inactive: [1] -0.013 | [2] 0.049 | [3] -0.001 | [4] -0.003 | [5] -0.032

ELOVL1 (UniProt Q9BW60)
inactive: [1] -0.16 | [2] 0.145 | [3] 0.045 | [4] -0.134 | [5] -0.05

EIF3I (UniProt Q13347)
inactive: [1] -0.039 | [2] 0.019 | [3] 0.021 | [4] 0.049 | [5] -0.021

ELOVL5 isoform 2 (UniProt Q9NYP7)
inactive: [1] -0.056 | [2] 0.021 | [3] 0.016 | [4] -0.074 | [5] 0.033

EMC10 (UniProt Q5UCC4)
inactive: [1] 0.065 | [2] 0.041 | [3] 0.065 | [4] -0.024 | [5] -0.048

EIF3F (UniProt O00303)
inactive: [1] -0.033 | [2] 0.034 | [3] 0.081 | [4] 0 | [5] -0.027

EIF2AK1 (UniProt Q9BQI3)
inactive: [1] 0.025 | [2] -0.036 | [3] -0.051 | [4] 0.025 | [5] 0.018

EIF1 (UniProt P41567)
inactive: [1] 0.03 | [2] 0.031 | [3] 0.001 | [4] 0.037 | [5] 0.016

EEF1A1P5 (UniProt Q5VTE0)
inactive: [1] -0.027 | [2] 0.035 | [3] 0.01 | [4] 0.103 | [5] 0.002

EEF1B2 (UniProt P24534)
inactive: [1] -0.037 | [2] -0.002 | [3] 0.036 | [4] 0.026 | [5] -0.034

ELAVL1 isoform 2 (UniProt Q15717)
inactive: [1] 0.002 | [2] -0.064 | [3] -0.105 | [4] 0.168 | [5] 0.048

EEF2 (UniProt P13639)
inactive: [1] -0.009 | [2] 0.018 | [3] -0.021 | [4] -0.006 | [5] 0.012

ELP4 (UniProt Q96EB1)
inactive: [1] 0.034 | [2] 0.128 | [3] -0.004 | [4] -0.018 | [5] 0.049

EIF2B2 (UniProt P49770)
inactive: [1] 0.015 | [2] -0.001 | [3] -0.038 | [4] 0.006 | [5] -0.025

EIPR1 (UniProt Q53HC9)
inactive: [1] -0.048 | [2] 0.055 | [3] 0.055 | [4] -0.022 | [5] 0.026

EIF5 (UniProt P55010)
inactive: [1] -0.018 | [2] 0.032 | [3] 0.079 | [4] -0.044 | [5] -0.043

EIF4EBP1 (UniProt Q13541)
inactive: [1] 0.037 | [2] 0.074 | [3] -0.112 | [4] -0.056 | [5] 0.023

ELP6 (UniProt Q0PNE2)
inactive: [1] -0.014 | [2] 0.03 | [3] 0.046 | [4] -0.012 | [5] 0.01

EIF3K (UniProt Q9UBQ5)
inactive: [1] -0.05 | [2] 0.136 | [3] 0.036 | [4] -0.072 | [5] -0.04

EIF2S3 (UniProt P41091)
inactive: [1] 0.008 | [2] -0.023 | [3] -0.017 | [4] 0.054 | [5] -0.002

Retrieved one by one from above, 3 records:
EEF1B2 (UniProt P24534)
inactive: [1] -0.037 | [2] -0.002 | [3] 0.036 | [4] 0.026 | [5] -0.034

EIF2S3 (UniProt P41091)
inactive: [1] 0.008 | [2] -0.023 | [3] -0.017 | [4] 0.054 | [5] -0.002

ELP3 (UniProt Q9H9T3)
inactive: [1] 0.011 | [2] 0.042 | [3] 0.009 | [4] -0.051 | [5] -0.024

(list continues)

ENO3 (UniProt P13929)
inactive: [1] -0.02 | [2] 0.008 | [3] -0.049 | [4] -0.052 | [5] -0.005

EMC4 (UniProt Q5J8M3)
inactive: [1] -0.021 | [2] 0.047 | [3] -0.05 | [4] -0.038 | [5] -0.05

EEF1A1 (UniProt P68104)
inactive: [1] 0.112 | [2] 0.212 | [3] -0.097 | [4] 0.125 | [5] -0.471

EIF3H (UniProt O15372)
inactive: [1] -0.041 | [2] 0.01 | [3] 0.059 | [4] 0.036 | [5] 0.055

EMP3 (UniProt P54852)
inactive: [1] 0.035 | [2] -0.005 | [3] -0.001 | [4] -0.063 | [5] 0.033

ELOC (UniProt Q15369)
inactive: [1] 0.024 | [2] 0.151 | [3] 0.132 | [4] -0.066 | [5] -0.07

EML4 (UniProt Q9HC35)
inactive: [1] -0.097 | [2] -0.015 | [3] -0.012 | [4] 0.064 | [5] -0.078

ELOF1 (UniProt P60002)
inactive: [1] -0.097 | [2] -0.166 | [3] -0.082 | [4] 0.028 | [5] 0.003

EIF5A isoform 2 (UniProt P63241)
inactive: [1] -0.016 | [2] 0.039 | [3] 0.046 | [4] -0.069 | [5] -0.017

ENO2 (UniProt P09104)
inactive: [1] 0.04 | [2] 0.028 | [3] -0.027 | [4] -0.014 | [5] 0.052

EFL1 (UniProt Q7Z2Z2)
inactive: [1] -0.042 | [2] 0.051 | [3] 0.083 | [4] 0.008 | [5] -0.017

EIF2B1 (UniProt Q14232)
inactive: [1] 0.028 | [2] 0.018 | [3] -0.029 | [4] -0.041 | [5] -0.003

ENTPD5 (UniProt O75356)
inactive: [1] 0.077 | [2] 0.04 | [3] 0 | [4] 0.017 | [5] 0.058

EIF2B4 isoform 2 (UniProt Q9UI10)
inactive: [1] -0.029 | [2] 0.032 | [3] -0.021 | [4] -0.029 | [5] -0.027

EML2 isoform 3 (UniProt O95834)
inactive: [1] -0.061 | [2] 0.03 | [3] 0.081 | [4] -0.012 | [5] -0.048

EFTUD2 (UniProt Q15029)
inactive: [1] 0.042 | [2] -0.001 | [3] -0.016 | [4] 0.009 | [5] 0.032

EEF1A2 (UniProt Q05639)
inactive: [1] 0.002 | [2] 0.073 | [3] 0.075 | [4] -0.019 | [5] -0.029

EMC6 (UniProt Q9BV81)
inactive: [1] -0.002 | [2] 0.061 | [3] 0.073 | [4] -0.216 | [5] -0.012

EIF2B5 (UniProt Q13144)
inactive: [1] 0.008 | [2] -0.034 | [3] 0.012 | [4] 0.098 | [5] 0.001

EIF3C (UniProt Q99613)
inactive: [1] -0.075 | [2] -0.032 | [3] 0.01 | [4] 0.101 | [5] -0.01

ENDOG (UniProt Q14249)
inactive: [1] -0.019 | [2] 0.055 | [3] 0.144 | [4] -0.037 | [5] -0.012

EPB41L1 (UniProt Q9H4G0)
inactive: [1] -0.038 | [2] 0.041 | [3] 0.143 | [4] 0.019 | [5] 0.032

ENY2 (UniProt Q9NPA8)
inactive: [1] 0.039 | [2] 0.055 | [3] 0.054 | [4] -0.03 | [5] -0.01

EHMT2 (UniProt Q96KQ7)
inactive: [1] 0.037 | [2] 0.012 | [3] 0.025 | [4] 0.098 | [5] -0.023

EIF3J (UniProt O75822)
inactive: [1] -0.034 | [2] 0.025 | [3] -0.004 | [4] -0.041 | [5] -0.035

EHD1 (UniProt Q9H4M9)
inactive: [1] 0.006 | [2] 0.062 | [3] 0.05 | [4] -0.05 | [5] -0.013

EIF5B (UniProt O60841)
inactive: [1] -0.002 | [2] -0.004 | [3] -0.005 | [4] 0.045 | [5] -0.046

EFNB1 (UniProt P98172)
inactive: [1] -0.019 | [2] 0.027 | [3] 0.04 | [4] 0.003 | [5] 0.08

EMC7 (UniProt Q9NPA0)
inactive: [1] -0.007 | [2] 0.062 | [3] 0.043 | [4] -0.007 | [5] -0.02

EMC8 (UniProt O43402)
inactive: [1] 0.011 | [2] 0.061 | [3] 0.028 | [4] -0.029 | [5] 0.02
